No constants are given. Whether binding was seen depends on the method and setting. Binding seen in cells or lysates may run through a third protein. Some entries that bind do so weakly or less than the wild type.
Biological target: EGFR-GFP (from lysate of transfected COS7 cells; also expressed in HeLa cells) (human) [GFP: P42212]
Experiment: GST pull-down from COS7 lysate containing EGFR-GFP, with GDP or GTPγS, anti-GFP immunoblot

Protein sequences, listed by entry. Tags and fused reporters are not part of them. Lines headed by an entry give the natural chain unless they say otherwise; changes in a name come on top.
UniProt Q5R548: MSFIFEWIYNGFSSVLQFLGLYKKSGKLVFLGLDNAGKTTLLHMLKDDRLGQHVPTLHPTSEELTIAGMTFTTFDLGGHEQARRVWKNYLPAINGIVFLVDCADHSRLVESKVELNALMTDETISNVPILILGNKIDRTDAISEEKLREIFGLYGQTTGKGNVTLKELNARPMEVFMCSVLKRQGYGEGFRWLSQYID

Substance: GST-tagged SAR1A wild type (wt) (from UniProt Q5R548 1-198)
- binding: binds
